Reference: patent US20250019769A1, “REPURPOSING DRUGS FOR NON-SMALL CELL LUNG CANCER” (WEST VIRGINIA UNIVERSITY BOARD OF GOVERNORS ON BEHALF OF …, priority 2021, published 2025)
At least one compound was matched to its structure with a doubt left. Some of these results come from one statement about several compounds together.

How the values were obtained:
[1] = test system: CCLE NSCLC cell lines; assay: PRISM drug screen, growth inhibitory activity in CCLE NSCLC cell lines; assay type: cell-based, human; conditions: 7-gene network study (FIG. 13C), read-out: average IC50 or EC50 value
Description: The growth inhibitory activity of 4,518 drugs was quantified in 578 human cancer cell lines using the PRISM molecular barcoding and multiplexed screening method. The PRISM dataset is available at the Cancer Dependency Map portal (https://depmap.org/portal/download/, accessed on 1 Apr. 2021). Drug responses of 9 commonly used chemotherapeutic regimens in treating NSCLC were included: carboplatin, cisplatin, paclitaxel, docetaxel, gemcitabine, vinorelbine, etoposide, gefitinib, and erlotinib. For each drug, cell lines with IC50 or EC50 value higher than the maximum dose were defined as resistant; cell lines with IC50 or EC50 value lower than the minimum dose were defined as sensitive. The remaining cell lines were divided into groups of resistant, sensitive, or partial response by using the mean±0.5 standard deviation (SD) of the drug activity metrics, including IC50, ln(IC50), EC50, or ln(EC50) values. Cell lines with a drug activity value less than the mean−0.5 SD were defined as sensitive to the drug, and those with a drug activity value between the mean+0.5 SD and the mean−0.5 SD were defined as having a partial response to the drug. […]
The growth inhibitory activity of 4,518 drugs was quantified in 578 human cancer cell lines using the PRISM molecular barcoding and multiplexed screening method. […]

[2] = test system: human NSCLC epithelial cell lines; assay: PRISM/GDSC drug response in human NSCLC epithelial cell lines (n=135); assay type: cell-based; conditions: average in human NSCLC epithelial cell lines (FIG. 18C)
Description: The PRISM dataset. was obtained from the DepMap portal (https://depmap.org/portal/download/, PRISM repurposing 19Q4, accessed on 1 Apr. 2021). Carboplatin, cisplatin, docetaxel, erlotinib, etoposide, gefitinib, gemcitabine, paclitaxel (Taxol), pemetrexed, and vinorelbine were commonly used chemotherapeutic drugs in NSCLC treatment, the analysis focused on these ten regiments. Drug activity measurements, including IC50, ln(IC50), EC50, and ln(EC50), were used in the analysis. The available CCLE NSCLC cell lines were divided into three groups by the drug activity measurements: sensitive, resistant, and intermediate.
Drug activity measurements were generated in the GDSC Project. (https://www.cancerrxgene.org/downloads/bulk_download, accessed on 15 Apr. 2021). IC50 and ln(IC50) were the main metrics used in this analysis. The available CCLE NSCLC cell lines were divided into three groups by the drug activity measurements in the GDSC1/2 datasets, i.e., sensitive, resistant, and intermediate.

[3] = test system: CCLE NSCLC cell lines; conditions: outlier excluded from the plot of FIG. 6B; CCLE NSCLC cell lines (n=117); cited from earlier work

In the case of CN(Cc1ccccc1)C(=O)[C@H](Cc1ccc2ccccc2c1)NC(=O)[C@@H]1C[C@@H](O)CN1C(=O)c1cn(C)c2ccccc12 [FK-888], the IC50 [1] is reported as at most 1000 nM.
CC(C)c1ccccc1Cc1cc(C(=O)Nc2ccc(S(=O)(=O)c3ccccc3C(C)(C)C)cc2)c(O)c(O)c1O [TW-37] showed an EC50 [2] of under 1000 nM and an IC50 [2] of under 1000 nM.
In the case of CCN(CC)C(=S)SSC(=S)N(CC)CC [disulfiram], the EC50 [3] is listed as 25.6 µM.
